24 molecules from PubChem BioAssay AID202 (DTP/NCI, 2004) can be followed below.

For this assay, the system named is HT29 xenograft, nude mice, s.c., tumor weight T/C%. Description: NCI In Vivo Anticancer Drug Screen. Data for tumor model HT29;CX-1 Human Adenocarcinoma (MER+) (subcutaneous) in NU/NU Swiss (nude) mice. As to conditions: T/C endpoint: optimum tumor weight change, higher T/C = larger tumour. As to the method: The antitumor activity of compounds was measured in mice bearing transplantable tumors. Survival or tumor size were measured and the results are expressed as the measurement made in the treated group (T) divided by the measurement made in the vehicle treated control group (C). The tumor model used in this assay is HT29;CX-1 Human Adenocarcinoma (MER+) (subcutaneous) in NU/NU Swiss (nude) mice

[1] abbreviates: dose: 400.0 mg/kg/injection, schedule: Q04DX003 (ip), vehicle: saline.
Setting [2] is: dose: 100.0 mg/kg/injection, schedule: Q04DX003 (ip), vehicle: Klucel (hydroxypropylcellulose) (HPC).
[3] abbreviates: dose: 200.0 mg/kg/injection, schedule: Q04DX003 (ip), vehicle: Klucel (hydroxypropylcellulose) (HPC).
[4] abbreviates: dose: 400.0 mg/kg/injection, schedule: Q04DX003 (ip), vehicle: Klucel (hydroxypropylcellulose) (HPC).

The list shows only some results of the screen, not a fair sample: it gathers tests that were run many times, whatever their T/C, doses with no T/C, and many T/C values between a quarter and a half above the control. Further doses and runs are listed elsewhere. T/C gives the treated animals as a percentage of the vehicle group. Schedules are NCI's codes, read here as Q, the interval in days (D) or hours (H), X, the number of doses. Some T/C values carry the count of animals alive at the toxicity check (mostly the fifth day); where none is given, no animal had died by that day. Some doses have a count of surviving animals in place of a T/C: the source holds a T/C of zero for them, seemingly a mark for toxic or unscored doses. Counts of survivors are from the toxicity check (mostly the fifth day) where no day follows; animals may have died later. Some doses were run more than once; the values are given in rising order. *1 amine or outer side, *2 acyl side, *3 side chain or, on linkers, in order; H or OH if unused. Where a SMILES comes first, the peptide text is derived from it. Bridges are numbered along the chain shown (N, C = ends). Roman numbers before positions name the chains, in order. [ ]: non-standard residue; d: D form. Actinocin(9to1) = Cc1c2oc3c(C)ccc(C(=O)[*:1])c3nc-2c(C(=O)[*:2])c(N)c1=O; aThr = C[C@H](O)[C@H](N)C(=O)O; NMeV = CN[C@H](C(=O)O)C(C)C; Sar = CNCC(=O)O

For the molecule `CNC=O`, the survivor count (dose: 1600.0 mg/kg/injection, schedule: Q04DX003 (ip), vehicle: saline) was 0 of 5 on day 35.
For the molecule `CN(C)c1nc(N(C)C)nc(N(C)C)n1`, the survivor count reads like this: (dose: 240.0 mg/kg/injection, schedule: Q01DX005 (ip), vehicle: Klucel (hydroxypropylcellulose) (HPC)) 1 of 5; (dose: 480.0 mg/kg/injection, schedule: Q07DX005 (ip), vehicle: Klucel (hydroxypropylcellulose) (HPC)) 1 of 5 and 3 of 5.
Regarding `C=CC(=O)NCNC(=O)C=C`, the survivor count under setting [1] is 1 of 5 on day 35.
For the molecule `OCC1OC(n2cnc3cncnc32)C(O)C1O` (configuration not stated), the survivor count runs as follows: (dose: 50.0 mg/kg/injection, schedule: Q04DX003 (ip), vehicle: saline) 1 of 5 on day 39; (dose: 100.0 mg/kg/injection, schedule: Q04DX003 (ip), vehicle: saline) 0 of 5 on day 39.
On to `O=C(O)CP(=O)(O)O`, for which the survivor count (dose: 3200.0 mg/kg/injection, schedule: Q04DX003 (ip), vehicle: saline) is on record as 0 of 5 on day 40.
Take `COc1cc([C@@H]2c3cc4c(c(O)c3C[C@H]3COC(=O)[C@@H]32)OCO4)cc(OC)c1OC`: the survivor count (dose: 20.0 mg/kg/injection, schedule: Q04DX003 (ip), vehicle: saline) is on record as 2 of 5 on day 37.
As for `Cc1c2oc3c(C)ccc(C(=O)N[C@@H]4C(=O)N[C@H](C(C)C)C(=O)N5CCC[C@H]5C(=O)N(C)CC(=O)N(C)[C@@H](C(C)C)C(=O)O[C@H]4C)c3nc-2c(C(=O)N[C@@H]2C(=O)N[C@H](C(C)C)C(=O)N3CCC[C@H]3C(=O)N(C)CC(=O)N(C)[C@@H](C(C)C)C(=O)O[C@H]2C)c(N)c1=O` (I: [aThr][dV]P[Sar][NMeV] / II: [aThr][dV]P[Sar][NMeV]; ester I:1-I:C, II:1-II:C; linker I:N-II:N via Actinocin(9to1)), under “dose: 600.0 micrograms/kg/injection, schedule: Q04DX003 (ip), vehicle: saline”, the survivor count is given as 3 of 5 on day 37.
Regarding `NC(=O)c1ccc[n+](Cc2c(Cl)cccc2Cl)c1`, the survivor count (dose: 96.0 mg/kg/injection, schedule: Q04DX003 (ip), vehicle: saline) is recorded as 1 of 5 on day 39 and the survivor count (dose: 192.0 mg/kg/injection, schedule: Q04DX003 (ip), vehicle: saline) is given as 0 of 5 on day 39.
Consider `NC(Cc1ccc(N(CCCl)CCCl)cc1)C(=O)O` (configuration not stated), for which the survivor count runs as follows: (dose: 10.0 mg/kg/injection, schedule: Q04DX003 (ip), vehicle: Klucel (hydroxypropylcellulose) (HPC)) 3 of 5 on day 40; (dose: 20.0 mg/kg/injection, schedule: Q04DX003 (ip), vehicle: Klucel (hydroxypropylcellulose) (HPC)) 0 of 5 on day 40.
As for `C[C@]12CC[C@@H]3c4ccc(OC(=O)Cc5ccc(N(CCCl)CCCl)cc5)cc4CC[C@H]3[C@@H]1CC[C@@H]2OC(=O)Cc1ccc(N(CCCl)CCCl)cc1`, the survivor count is listed as 3 of 5 on day 42 (dose: 150.0 mg/kg/injection, schedule: Q04DX003 (ip), vehicle: saline with Tween-80); 0 of 5 on day 39 (dose: 300.0 mg/kg/injection, schedule: Q04DX003 (ip), vehicle: saline with Tween-80); 2 of 5 on day 42, 3 of 5 on day 36, 3 of 5 on day 39 (dose: 600.0 mg/kg/injection, schedule: Q04DX003 (ip), vehicle: saline with Tween-80).
`CN(C)N=Nc1cn[nH]c1C(N)=O`: the survivor count under setting [2] is recorded as 3 of 5 on day 40; the survivor count under setting [3] is recorded as 1 of 5 on day 40; the survivor count under setting [4] is 0 of 5 on day 40; the survivor count (dose: 800.0 mg/kg/injection, schedule: Q04DX003 (ip), vehicle: Klucel (hydroxypropylcellulose) (HPC)) was 0 of 5 on day 40.
As to `CCCC(=O)OCc1cc(=O)n(C)c2c3c4c(cc12)c(C)cc(=O)n4CO3`, the survivor count is, setting by setting: under setting [2], 2 of 5 on day 35; under setting [3], 0 of 5 on day 35; under setting [4], 0 of 5 on day 35.
Regarding `CC(=O)c1c(O)c(C)c(O)c2c1OC1=CC(=O)C(C(C)=O)C(=O)C12C` (configuration not stated), the survivor count (dose: 400.0 mg/kg/injection, schedule: Q01DX003 (ip), vehicle: sodium bicarbonate) is listed as 1 of 5 on day 40.
In the case of `CC(C)CCCCCCCCCCCCC(=O)NCC(=O)NC1C(C)OC(Nc2ncnc3nc[nH]c23)C(O)C1O` (configuration not stated), the survivor count is 3 of 5 on day 37 (dose: 3.13 mg/kg/injection, schedule: Q04DX003 (ip), vehicle: distilled water + Tween-80); 3 of 5 on day 37 (dose: 12.5 mg/kg/injection, schedule: Q04DX003 (ip), vehicle: distilled water + Tween-80); 0 of 5 on day 37 (dose: 25.0 mg/kg/injection, schedule: Q04DX003 (ip), vehicle: distilled water + Tween-80); 0 of 5 on day 39 (dose: 25.0 mg/kg/injection, schedule: Q04DX003 (ip), vehicle: saline with Tween-80).
Regarding `CN(C)N=Nc1ccccc1`, the survivor count is 1 of 5 on day 40 under setting [2] and 0 of 5 on day 40 under setting [3].
With `Cc1c(N)nc([C@H](CC(N)=O)NC[C@H](N)C(N)=O)nc1C(=O)N[C@H](C(=O)N[C@H](C)[C@@H](O)CC(=O)N[C@H](C(=O)NC(O[C@@H]1O[C@@H](C)[C@@H](N)[C@@H](O)[C@H]1O)C(O)c1nc(-c2nc(C(=O)NCCCCN)cs2)cs1)[C@@H](C)O)[C@@H](O[C@@H]1O[C@@H](CO)[C@@H](O)[C@H](O)[C@@H]1O[C@H]1O[C@H](CO)[C@@H](O)[C@H](OC(N)=O)[C@@H]1O)c1c[nH]cn1` (some centres not stated), the survivor count was 2 of 5 on day 36 (dose: 8.0 mg/kg/injection, schedule: Q04DX003 (ip), vehicle: saline); 3 of 6 on day 36 (dose: 16.0 mg/kg/injection, schedule: Q04DX003 (ip), vehicle: saline); 0 of 5 on day 36 and 2 of 5 on day 36 (dose: 32.0 mg/kg/injection, schedule: Q04DX003 (ip), vehicle: saline).
`CC(CN1CC(=O)NC(=O)C1)N1CC(=O)NC(=O)C1` (configuration not stated): the survivor count (dose: 400.0 mg/kg/injection, schedule: Q04DX003 (ip), vehicle: suspension in saline) is reported as 2 of 5 on day 36.
For `COc1cccc2c1C(=O)c1c(O)c3c(c(O)c1C2=O)C[C@@](O)(C(=O)CO)C[C@@H]3OC1CC(N)CC(C)O1` (some centres not stated), the survivor count (dose: 1.56 mg/kg/injection, schedule: Q04DX003 (ip), vehicle: water) is 2 of 5 on day 38; the survivor count (dose: 3.13 mg/kg/injection, schedule: Q04DX003 (ip), vehicle: water) is given as 1 of 5 on day 38; the survivor count (dose: 6.25 mg/kg/injection, schedule: Q04DX003 (ip), vehicle: water) is 0 of 5 on day 38; the survivor count (dose: 12.5 mg/kg/injection, schedule: Q04DX003 (ip), vehicle: water) was 0 of 5 on day 38.
As for `CO[C@H]1C[C@](C)(O)Cc2cc3c(c(O)c21)C(=O)c1c(O)cc2c(c1C3=O)O[C@@H]1O[C@@]2(C)[C@H](O)[C@@H](N(C)C)[C@@H]1O`, the survivor count is given as 0 of 5 on day 39 (dose: 50.0 mg/kg/injection, schedule: Q04DX003 (ip), vehicle: other) and 0 of 5 on day 39 (dose: 100.0 mg/kg/injection, schedule: Q04DX003 (ip), vehicle: other).
Take `Nc1ccc(Cl)cc1N`: the T/C (dose: 1600.0 mg/kg/injection, schedule: Q04DX003 (ip), vehicle: saline with Tween-80, evaluated on day 39) was 130 % of control [4 of 5 alive on day 39].
Take `Cc1c(CNc2ccc(C(=O)NC(CC(=O)O)C(=O)O)cc2)ccc2nc(N)nc(N)c12` (configuration not stated): under “dose: 24.0 mg/kg/injection, schedule: Q04DX003 (ip), vehicle: saline with Tween-80”, the survivor count is 3 of 5 on day 35.
For `COc1cc2c[n+](C)c3c4cc5c(cc4ccc3c2cc1OC)OCO5`, for the setting “dose: 160.0 mg/kg/injection, schedule: Q04DX003 (ip), vehicle: saline with Tween-80”, the survivor count is 0 of 5 on day 35.
As to `CSc1cc(=O)n2c3ccccc3c3ccnc1c32`, the T/C runs as follows: (dose: 40.0 mg/kg/injection, schedule: Q04DX003 (ip), vehicle: saline with Tween-80, evaluated on day 33) 139 % of control; (dose: 80.0 mg/kg/injection, schedule: Q04DX003 (ip), vehicle: saline with Tween-80, evaluated on day 33) 142 % of control.
On to `CN(N=O)C(=O)N[C@@H](C=O)[C@@H](O)[C@H](O)[C@H](O)CO`, for which the survivor count by setting is: under setting [1], 2 of 5 on day 39; (dose: 800.0 mg/kg/injection, schedule: Q04DX003 (ip), vehicle: saline) 0 of 5 on day 39.
